{
  "source": "patent US20030215529A1",
  "about": "“Composition and pharmaceutical preparation containing same for the treatment of herpes and related viral infections” (Dalhousie University, priority 1998, published 2003)",
  "origin": "cited, not measured here",
  "test_system": "HSV-1",
  "settings": "Hayashi et al.; cited from earlier work",
  "note": "At least one structure is not confirmed: it was looked up by name or label, or the drawing left a doubt.",
  "data": [
    {"smiles": "COc1cc(O)c2c(=O)cc(-c3ccc(OC)c(-c4c(O)cc(O)c5c(=O)cc(-c6ccc(O)cc6)oc45)c3)oc2c1", "note": "[Ginkgetin, ginkgetin]", "values": [
      {"measurement": "IC50 (50% inhibition concentration) against HSV-1", "result": 0.91, "unit": "µg/mL"}
    ]}
  ]
}
